PubChem BioAssay AID504764 | Drosophila RNAi Screening Center, 2011
In all, the deposit lists about 22,000 reagents; below is an unselected part of those with a known target gene and a result. Of all reagents, 403 (1.9%) got an active call. 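Unnormalised raw counts per well; ratio z-scores behind the hit calls and whether each hit raises or lowers signal are not deposited.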 Names joined by + are all predicted targets of the reagent. Reagent sequences are not shown. The record does not give: the amount of reagent.

- Screen: 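Genome-wide screen for regulators of Notch-driven gene expression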 (primary screen)
- Cells: Drosophila Kc167 cells
- Reagent: long dsRNA against Drosophila genes
- Duration: about 5 days (4 days dsRNA, then 24 h after transfection)
- Challenge: transfection of constitutively active membrane-tethered Notch lacking the extracellular domain, read 24 h later
- Measurement: 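Firefly luciferase from an E(spl)m3 reporter with active Notch, plus control-promoter and uninduced reporter wells for normalisation; unnormalised counts, duplicate wells a and b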
- Reading the numbers: induced reporter light, run 1, well a and induced reporter light, run 1, well b: higher = more light from the Notch target reporter with active Notch; control promoter light, run 1, well a and control promoter light, run 1, well b: higher = more light from the viral control promoter (cell number, transfection, viability); uninduced reporter light, run 1, well a: higher = more light from the Notch target reporter without active Notch
- Hit rule: 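Hit if the duplicate-averaged log2 ratio of induced to control-promoter light gives a plate-wise z beyond ±2, or induced to uninduced beyond ±1.8; weak-control or discordant-duplicate wells dropped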
- Meaning of the calls: active = modifier hit (raised or lowered Notch signal); inactive = not a hit

Target gene | amplicon | induced reporter light, run 1, well a | induced reporter light, run 1, well b | control promoter light, run 1, well a | control promoter light, run 1, well b | uninduced reporter light, run 1, well a | call
RpS25 (GeneID 41343) | DRSC16837 | 91265 | 1.25e5 | 83450 | 65440 | 4950 | inactive
Pka-C3 (GeneID 39733) | DRSC09402 | 1.86e5 | 2.10e5 | 2.83e5 | 2.32e5 | 19330 | inactive
Pka-C3 (GeneID 39733) | DRSC11254 | 2.50e5 | 2.11e5 | 2.56e5 | 2.36e5 | 11175 | inactive
btv (GeneID 35073) | DRSC01615 | 64930 | 69860 | 72780 | 70350 | 3790 | inactive
btv (GeneID 35073) | DRSC02449 | 1.14e5 | 1.23e5 | 1.06e5 | 1.22e5 | 8625 | inactive
exp (GeneID 36276) | DRSC06313 | 29100 | 31120 | 31445 | 31430 | 5035 | inactive
CG1722 (GeneID 33101) | DRSC20547 | 83630 | 89460 | 86820 | 1.05e5 | 10015 | inactive
Cyp28a5 (GeneID 34817) | DRSC03297 | 2.87e5 | 3.29e5 | 2.96e5 | 2.99e5 | 23820 | inactive
rtv (GeneID 32056) | DRSC19541 | 2.10e5 | 1.59e5 | 2.12e5 | 2.08e5 | 12905 | inactive
hbs (GeneID 44129) | DRSC07627 | 1.09e5 | 1.09e5 | 1.39e5 | 1.46e5 | 10205 | inactive
Hsp70Aa + Hsp70Ab | DRSC21246 | 54085 | 47345 | 64125 | 67430 | 6590 | inactive
CG32536 + CG32537 | DRSC20074 | 1.27e5 | 1.14e5 | 1.46e5 | 1.92e5 | 13865 | inactive
CG9861 (GeneID 37692) | DRSC04576 | 2.24e5 | 2.18e5 | 2.30e5 | 2.39e5 | 17790 | inactive
TTLL4A (GeneID 47729) | DRSC02528 | 2.16e5 | 3.00e5 | 2.10e5 | 2.08e5 | 19375 | inactive
wrd (GeneID 42169) | DRSC16337 | 18265 | 16200 | 15728 | 15310 | 4975 | inactive
wrd (GeneID 42169) | DRSC16344 | 1.98e5 | 1.94e5 | 1.51e5 | 1.54e5 | 11260 | inactive
wb (GeneID 43946) | DRSC01375 | 3725 | 3270 | 3665 | 3435 | 4045 | inactive
wb (GeneID 43946) | DRSC03634 | 1.56e5 | 1.63e5 | 1.50e5 | 1.57e5 | 13170 | inactive
CG31251 (GeneID 318645) | DRSC16247 | 1.63e5 | 1.68e5 | 2.22e5 | 2.13e5 | 11085 | inactive
Cpr49Ae (GeneID 36351) | DRSC07201 | 98135 | 81450 | 95785 | 80965 | 7040 | inactive
Tim17b2 (GeneID 44381) | DRSC03457 | 1.32e5 | 1.31e5 | 1.35e5 | 1.51e5 | 10150 | inactive
Sgsh (GeneID 42266) | DRSC14771 | 2.10e5 | 1.83e5 | 2.36e5 | 2.54e5 | 17295 | inactive
CG7248 (GeneID 39356) | DRSC10788 | 1.01e5 | 80175 | 1.06e5 | 1.01e5 | 4120 | inactive
CG18537 (GeneID 37094) | DRSC06764 | 45590 | 35775 | 51715 | 36735 | 3625 | inactive
ana1 (GeneID 42927) | DRSC16079 | 16020 | 16490 | 23770 | 20162 | 1325 | inactive
Adgf-A2 (GeneID 64879) | DRSC09507 | 1.73e5 | 1.65e5 | 2.13e5 | 2.16e5 | 17970 | inactive

2 of these entries in another layout:
| Target gene | amplicon | induced reporter light, run 1, well a | induced reporter light, run 1, well b | control promoter light, run 1, well a | control promoter light, run 1, well b | uninduced reporter light, run 1, well a | call |
| --- | --- | --- | --- | --- | --- | --- | --- |
| ana1 (GeneID 42927) | DRSC16079 | 16020 | 16490 | 23770 | 20162 | 1325 | inactive |
| Adgf-A2 (GeneID 64879) | DRSC09507 | 1.73e5 | 1.65e5 | 2.13e5 | 2.16e5 | 17970 | inactive |

Next entries:
Target gene | amplicon | induced reporter light, run 1, well a | induced reporter light, run 1, well b | control promoter light, run 1, well a | control promoter light, run 1, well b | uninduced reporter light, run 1, well a | call
CG5910 (GeneID 40264) | DRSC11786 | 1.21e5 | 1.44e5 | 1.04e5 | 91505 | 7475 | inactive
CG7069 (GeneID 42621) | DRSC16188 | 1.73e5 | 1.82e5 | 2.27e5 | 2.34e5 | 14825 | inactive
Nazo (GeneID 40976) | DRSC14343 | 94295 | 98275 | 1.16e5 | 79970 | 7570 | inactive
reb (GeneID 36275) | DRSC06308 | 98715 | 99660 | 1.24e5 | 1.45e5 | 10528 | inactive
CG3598 (GeneID 31283) | DRSC18471 | 1.10e5 | 1.08e5 | 1.82e5 | 1.70e5 | 8790 | inactive
spaw (GeneID 246568) | DRSC06824 | 2.38e5 | 2.61e5 | 1.67e5 | 1.82e5 | 18938 | active
Paip1 (GeneID 36913) | DRSC07302 | 33520 | 46445 | 67890 | 64345 | 4782 | inactive
ReepA (GeneID 37643) | DRSC04572 | 84800 | 96270 | 58045 | 62300 | 6805 | inactive
CNMaR (GeneID 39127) | DRSC08992 | 76350 | 97120 | 1.67e5 | 1.66e5 | 7665 | active
CNMaR (GeneID 39127) | DRSC10224 | 1.53e5 | 1.44e5 | 2.16e5 | 1.58e5 | 5980 | inactive
TyrRII (GeneID 42135) | DRSC15150 | 1.62e5 | 1.32e5 | 1.87e5 | 1.68e5 | 12355 | inactive
CG4835 (GeneID 38619) | DRSC10452 | 2.57e5 | 2.62e5 | 1.92e5 | 2.21e5 | 16520 | inactive
CG32450 (GeneID 318034) | DRSC11546 | 2.56e5 | 2.34e5 | 2.98e5 | 3.18e5 | 20280 | inactive
Scsalpha2 (GeneID 42326) | DRSC16003 | 1.62e5 | 1.47e5 | 2.49e5 | 2.22e5 | 13275 | inactive
CG15021 (GeneID 38546) | DRSC08475 | 1.36e5 | 1.40e5 | 1.76e5 | 1.57e5 | 7290 | inactive
Glg1 (GeneID 40382) | DRSC11815 | 1.27e5 | 1.16e5 | 79790 | 1.03e5 | 9270 | inactive
Glg1 (GeneID 40382) | DRSC11816 | 28195 | 39850 | 44805 | 41500 | 2400 | inactive
Glg1 (GeneID 40382) | DRSC11817 | 1.18e5 | 1.15e5 | 98670 | 91620 | 7395 | inactive
RnrL (GeneID 34392) | DRSC03413 | 1.99e5 | 2.21e5 | 1.29e5 | 1.53e5 | 17980 | inactive
alpha-Est9 (GeneID 40897) | DRSC12621 | 78125 | 94830 | 89350 | 65775 | 6595 | inactive
Parp16 (GeneID 36841) | DRSC06597 | 1.52e5 | 81485 | 1.24e5 | 1.11e5 | 11955 | inactive
RpS28a (GeneID 43564) | DRSC15064 | 93565 | 95335 | 1.51e5 | 1.48e5 | 7792 | inactive
CG14777 (GeneID 31099) | DRSC18563 | 1.25e5 | 1.12e5 | 1.92e5 | 1.96e5 | 7705 | inactive
Ist1 (GeneID 38750) | DRSC09697 | 1.43e5 | 1.71e5 | 1.04e5 | 77090 | 14005 | inactive
